According to the supplement of paper PMC7666118:
This is one part of the list.

Chains of the proteins cited; added tags and fusions are not shown. Lines headed by an entry give the natural chain unless they say otherwise; changes in a name come on top.
UniProt P53794: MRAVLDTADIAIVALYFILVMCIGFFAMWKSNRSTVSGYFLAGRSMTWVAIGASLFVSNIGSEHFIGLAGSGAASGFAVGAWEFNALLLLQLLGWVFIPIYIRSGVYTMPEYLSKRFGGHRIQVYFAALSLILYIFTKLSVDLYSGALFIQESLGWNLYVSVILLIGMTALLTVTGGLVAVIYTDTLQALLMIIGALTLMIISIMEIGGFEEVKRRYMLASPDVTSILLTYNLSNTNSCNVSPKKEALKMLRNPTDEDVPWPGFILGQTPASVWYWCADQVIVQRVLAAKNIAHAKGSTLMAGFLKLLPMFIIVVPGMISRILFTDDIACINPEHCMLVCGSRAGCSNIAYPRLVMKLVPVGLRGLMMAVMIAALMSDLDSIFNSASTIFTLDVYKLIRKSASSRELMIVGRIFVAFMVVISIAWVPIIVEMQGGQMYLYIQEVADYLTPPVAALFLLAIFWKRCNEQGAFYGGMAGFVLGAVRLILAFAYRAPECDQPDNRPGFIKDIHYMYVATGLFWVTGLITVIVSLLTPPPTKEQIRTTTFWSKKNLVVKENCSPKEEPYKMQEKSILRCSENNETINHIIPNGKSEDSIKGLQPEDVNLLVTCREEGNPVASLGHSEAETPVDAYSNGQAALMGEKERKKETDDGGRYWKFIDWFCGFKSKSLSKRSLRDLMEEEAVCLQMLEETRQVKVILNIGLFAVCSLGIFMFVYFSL
UniProt Q12824, whole entry: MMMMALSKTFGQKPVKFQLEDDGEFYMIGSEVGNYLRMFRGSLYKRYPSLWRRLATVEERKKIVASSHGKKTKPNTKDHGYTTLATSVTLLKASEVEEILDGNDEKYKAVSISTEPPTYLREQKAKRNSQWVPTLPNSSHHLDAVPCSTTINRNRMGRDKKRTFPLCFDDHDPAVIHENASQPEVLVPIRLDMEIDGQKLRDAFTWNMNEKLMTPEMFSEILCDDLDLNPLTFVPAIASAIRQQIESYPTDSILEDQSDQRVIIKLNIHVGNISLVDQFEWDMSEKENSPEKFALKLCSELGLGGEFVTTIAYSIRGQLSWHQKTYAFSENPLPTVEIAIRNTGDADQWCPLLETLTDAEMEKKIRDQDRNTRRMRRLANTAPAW
UniProt P62304, whole entry: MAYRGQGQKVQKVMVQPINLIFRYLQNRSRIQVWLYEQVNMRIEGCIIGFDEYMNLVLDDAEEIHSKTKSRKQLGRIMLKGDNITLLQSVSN
UniProt P35610: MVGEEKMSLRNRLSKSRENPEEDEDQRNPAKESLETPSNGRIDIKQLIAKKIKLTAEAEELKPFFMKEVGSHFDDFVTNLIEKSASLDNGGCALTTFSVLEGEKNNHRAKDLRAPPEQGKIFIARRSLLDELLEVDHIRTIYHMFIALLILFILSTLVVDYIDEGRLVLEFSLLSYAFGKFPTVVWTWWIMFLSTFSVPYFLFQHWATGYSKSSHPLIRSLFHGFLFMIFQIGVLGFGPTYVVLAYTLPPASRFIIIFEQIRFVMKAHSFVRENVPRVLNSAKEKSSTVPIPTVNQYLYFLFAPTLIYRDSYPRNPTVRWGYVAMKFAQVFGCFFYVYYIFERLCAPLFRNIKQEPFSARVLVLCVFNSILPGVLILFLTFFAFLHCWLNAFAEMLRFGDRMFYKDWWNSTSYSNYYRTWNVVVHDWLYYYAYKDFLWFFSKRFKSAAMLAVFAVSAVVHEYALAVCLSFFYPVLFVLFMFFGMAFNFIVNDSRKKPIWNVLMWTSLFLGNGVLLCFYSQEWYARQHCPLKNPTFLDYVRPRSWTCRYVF
UniProt Q16637, whole entry: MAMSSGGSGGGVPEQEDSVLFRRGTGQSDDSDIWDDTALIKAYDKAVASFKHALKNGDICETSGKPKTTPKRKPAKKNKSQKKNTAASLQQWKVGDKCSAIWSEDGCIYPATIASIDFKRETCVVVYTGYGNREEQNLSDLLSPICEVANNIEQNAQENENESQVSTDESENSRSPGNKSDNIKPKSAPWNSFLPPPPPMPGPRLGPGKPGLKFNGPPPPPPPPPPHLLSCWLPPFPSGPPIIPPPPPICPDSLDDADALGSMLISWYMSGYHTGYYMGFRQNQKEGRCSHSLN
UniProt Q96AG3: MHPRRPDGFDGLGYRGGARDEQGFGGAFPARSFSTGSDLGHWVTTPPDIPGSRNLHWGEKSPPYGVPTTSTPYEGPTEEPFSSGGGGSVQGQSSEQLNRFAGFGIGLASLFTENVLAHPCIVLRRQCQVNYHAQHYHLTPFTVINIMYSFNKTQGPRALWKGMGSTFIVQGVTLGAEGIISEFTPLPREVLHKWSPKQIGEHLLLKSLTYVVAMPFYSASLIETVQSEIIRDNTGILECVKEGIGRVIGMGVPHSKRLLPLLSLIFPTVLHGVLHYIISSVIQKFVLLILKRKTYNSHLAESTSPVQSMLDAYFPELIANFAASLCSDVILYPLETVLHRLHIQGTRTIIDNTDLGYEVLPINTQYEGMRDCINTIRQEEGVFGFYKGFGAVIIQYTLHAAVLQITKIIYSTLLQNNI
UniProt Q96FS4: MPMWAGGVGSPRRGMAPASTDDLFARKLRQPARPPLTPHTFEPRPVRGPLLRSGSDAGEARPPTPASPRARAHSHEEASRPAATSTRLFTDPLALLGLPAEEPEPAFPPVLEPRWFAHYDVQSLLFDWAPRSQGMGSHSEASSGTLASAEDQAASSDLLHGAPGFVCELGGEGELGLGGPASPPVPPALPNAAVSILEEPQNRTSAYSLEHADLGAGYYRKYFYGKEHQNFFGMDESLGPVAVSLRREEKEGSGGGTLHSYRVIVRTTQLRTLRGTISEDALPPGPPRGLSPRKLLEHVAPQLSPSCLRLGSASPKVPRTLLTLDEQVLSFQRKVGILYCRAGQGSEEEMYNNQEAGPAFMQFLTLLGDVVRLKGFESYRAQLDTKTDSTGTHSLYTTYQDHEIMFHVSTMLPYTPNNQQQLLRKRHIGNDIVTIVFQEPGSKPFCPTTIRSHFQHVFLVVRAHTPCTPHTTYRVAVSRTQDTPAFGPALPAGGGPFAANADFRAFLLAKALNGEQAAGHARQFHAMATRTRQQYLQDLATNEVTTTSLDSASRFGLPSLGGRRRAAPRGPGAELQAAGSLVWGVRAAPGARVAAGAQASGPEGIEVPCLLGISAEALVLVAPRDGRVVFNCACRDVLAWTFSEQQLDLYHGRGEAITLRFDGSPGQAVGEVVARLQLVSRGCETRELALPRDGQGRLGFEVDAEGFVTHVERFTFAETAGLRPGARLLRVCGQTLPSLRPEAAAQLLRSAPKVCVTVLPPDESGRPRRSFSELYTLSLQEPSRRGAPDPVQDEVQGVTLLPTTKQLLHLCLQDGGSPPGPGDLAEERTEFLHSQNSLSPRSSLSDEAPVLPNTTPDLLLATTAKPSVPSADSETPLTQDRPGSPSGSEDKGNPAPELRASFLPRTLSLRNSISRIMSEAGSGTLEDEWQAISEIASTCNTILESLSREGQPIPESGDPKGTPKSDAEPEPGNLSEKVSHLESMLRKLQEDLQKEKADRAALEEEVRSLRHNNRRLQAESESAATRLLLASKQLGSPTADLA
UniProt Q9Y371: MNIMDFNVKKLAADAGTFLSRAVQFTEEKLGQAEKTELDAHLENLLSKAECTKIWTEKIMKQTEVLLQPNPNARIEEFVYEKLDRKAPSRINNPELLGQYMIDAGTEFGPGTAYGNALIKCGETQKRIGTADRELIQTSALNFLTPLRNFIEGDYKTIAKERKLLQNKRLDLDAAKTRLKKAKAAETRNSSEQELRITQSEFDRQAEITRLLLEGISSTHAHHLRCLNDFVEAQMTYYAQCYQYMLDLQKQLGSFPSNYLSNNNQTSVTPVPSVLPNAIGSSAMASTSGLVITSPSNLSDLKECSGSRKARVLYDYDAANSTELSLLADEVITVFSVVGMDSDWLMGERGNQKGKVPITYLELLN
UniProt Q8TF71: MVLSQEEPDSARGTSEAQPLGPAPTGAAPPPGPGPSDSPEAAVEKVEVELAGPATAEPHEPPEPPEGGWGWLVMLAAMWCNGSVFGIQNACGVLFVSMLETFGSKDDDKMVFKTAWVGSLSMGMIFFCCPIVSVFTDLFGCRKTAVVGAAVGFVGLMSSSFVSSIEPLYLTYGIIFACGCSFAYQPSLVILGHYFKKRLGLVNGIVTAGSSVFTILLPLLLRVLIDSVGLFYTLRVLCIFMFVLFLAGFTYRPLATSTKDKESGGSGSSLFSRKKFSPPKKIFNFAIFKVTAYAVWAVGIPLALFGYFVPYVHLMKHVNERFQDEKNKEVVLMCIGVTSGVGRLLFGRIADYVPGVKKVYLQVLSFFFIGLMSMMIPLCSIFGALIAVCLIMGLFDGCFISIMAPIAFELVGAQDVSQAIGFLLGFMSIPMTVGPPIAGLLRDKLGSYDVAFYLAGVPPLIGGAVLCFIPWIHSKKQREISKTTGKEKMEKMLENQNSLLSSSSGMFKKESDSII
UniProt Q9UJS0: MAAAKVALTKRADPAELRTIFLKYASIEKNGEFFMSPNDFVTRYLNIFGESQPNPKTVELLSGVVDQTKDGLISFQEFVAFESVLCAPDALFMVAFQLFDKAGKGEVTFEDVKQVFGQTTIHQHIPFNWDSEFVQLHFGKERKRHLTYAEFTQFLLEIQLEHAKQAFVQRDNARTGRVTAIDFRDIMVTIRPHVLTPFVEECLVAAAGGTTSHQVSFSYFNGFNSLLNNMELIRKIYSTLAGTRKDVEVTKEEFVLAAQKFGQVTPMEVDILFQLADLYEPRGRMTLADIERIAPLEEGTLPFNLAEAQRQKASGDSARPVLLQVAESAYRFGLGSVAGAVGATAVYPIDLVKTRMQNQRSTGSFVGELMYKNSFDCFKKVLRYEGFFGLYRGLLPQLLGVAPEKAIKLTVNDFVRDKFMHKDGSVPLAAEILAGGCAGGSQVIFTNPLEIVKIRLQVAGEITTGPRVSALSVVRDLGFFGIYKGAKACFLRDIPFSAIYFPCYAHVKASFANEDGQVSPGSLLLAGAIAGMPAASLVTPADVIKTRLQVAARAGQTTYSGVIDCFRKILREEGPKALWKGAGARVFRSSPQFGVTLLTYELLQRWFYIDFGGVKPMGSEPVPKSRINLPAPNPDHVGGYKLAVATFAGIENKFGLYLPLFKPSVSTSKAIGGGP
UniProt P08621, whole entry: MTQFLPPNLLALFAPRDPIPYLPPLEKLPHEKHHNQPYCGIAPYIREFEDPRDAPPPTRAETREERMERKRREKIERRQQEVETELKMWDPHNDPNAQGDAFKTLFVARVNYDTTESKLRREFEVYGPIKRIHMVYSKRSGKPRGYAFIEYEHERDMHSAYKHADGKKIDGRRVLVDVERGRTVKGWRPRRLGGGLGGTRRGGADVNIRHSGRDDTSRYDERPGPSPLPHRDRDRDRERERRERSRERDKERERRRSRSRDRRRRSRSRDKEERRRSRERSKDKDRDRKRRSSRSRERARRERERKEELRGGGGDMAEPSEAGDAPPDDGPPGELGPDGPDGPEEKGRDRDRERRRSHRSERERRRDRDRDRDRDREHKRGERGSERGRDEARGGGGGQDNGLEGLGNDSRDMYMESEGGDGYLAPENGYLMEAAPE
UniProt Q8NBW4: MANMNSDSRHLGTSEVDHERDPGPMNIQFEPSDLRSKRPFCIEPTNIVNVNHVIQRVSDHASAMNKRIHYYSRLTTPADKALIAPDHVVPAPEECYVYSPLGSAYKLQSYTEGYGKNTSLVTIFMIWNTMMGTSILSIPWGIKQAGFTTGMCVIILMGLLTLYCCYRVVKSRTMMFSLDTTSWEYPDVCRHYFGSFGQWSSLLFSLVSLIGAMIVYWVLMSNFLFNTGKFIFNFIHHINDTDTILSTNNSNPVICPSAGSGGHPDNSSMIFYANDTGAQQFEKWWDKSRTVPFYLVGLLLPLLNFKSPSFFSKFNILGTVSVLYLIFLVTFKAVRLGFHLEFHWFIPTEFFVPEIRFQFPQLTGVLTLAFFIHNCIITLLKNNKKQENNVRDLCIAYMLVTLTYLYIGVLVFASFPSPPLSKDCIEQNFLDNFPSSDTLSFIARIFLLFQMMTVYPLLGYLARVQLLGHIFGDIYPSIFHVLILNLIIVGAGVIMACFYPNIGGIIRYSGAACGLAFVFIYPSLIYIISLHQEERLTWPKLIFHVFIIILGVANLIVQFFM
UniProt P43007: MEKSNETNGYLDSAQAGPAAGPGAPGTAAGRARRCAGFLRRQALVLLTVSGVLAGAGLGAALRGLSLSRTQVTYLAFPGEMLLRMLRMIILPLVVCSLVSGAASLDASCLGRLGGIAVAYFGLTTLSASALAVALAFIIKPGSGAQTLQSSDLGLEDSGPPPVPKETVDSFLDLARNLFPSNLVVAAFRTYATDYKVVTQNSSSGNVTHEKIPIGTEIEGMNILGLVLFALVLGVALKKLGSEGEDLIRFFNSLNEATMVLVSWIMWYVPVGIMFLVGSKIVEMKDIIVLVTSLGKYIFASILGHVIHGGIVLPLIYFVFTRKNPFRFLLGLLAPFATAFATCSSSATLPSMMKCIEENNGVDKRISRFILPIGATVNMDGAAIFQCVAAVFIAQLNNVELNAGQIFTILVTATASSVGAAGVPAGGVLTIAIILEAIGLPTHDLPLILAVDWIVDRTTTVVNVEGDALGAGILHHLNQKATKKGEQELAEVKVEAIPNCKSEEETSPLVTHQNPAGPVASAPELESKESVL

Compound: COc1ccc(Cn2ccc3cc(C)c(C(=O)NO)cc32)cc1
Assay: dose-dependent thermal stabilisation call (2D-TPP, DLPTP, 10% FDR) (binary (1 = stabilised)); higher = stabilised by the compound
Conditions: system: HL-60 intact cells; concentration range 0.04-10 µM
Procedure: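 2D thermal proteome profiling in intact HL-60 cells treated with BRD-3811 (0, 0.04, 0.29, 2, 10 uM) for 90 min at 37 C, then heated 3 min at one of 12 temperatures (42-63.9 C). Soluble protein was quantified by TMT10 MS. The value is the DLPTP call of the paper: dose-dependent thermal stabilisation over all temperatures at 10% FDR (F-test of a dose-response against a flat model); one experiment, one call per tested protein.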

| Target | dose-dependent thermal stabilisation call |
| --- | --- |
| SLC5A3 (UniProt P53794) | inactive: 0 |
| SLC6A9 (UniProt P48067) | inactive: 0 |
| SMARCB1 (UniProt Q12824) | inactive: 0 |
| SNRPE (UniProt P62304) | inactive: 0 |
| SOAT1 (UniProt P35610) | inactive: 0 |
| SMYD5 (UniProt Q6GMV2) | inactive: 0 |
| SNX4 (UniProt O95219) | inactive: 0 |
| SLC25A33 (UniProt Q9BSK2) | inactive: 0 |
| SGMS2 (UniProt Q8NHU3) | inactive: 0 |
| SNRNP40 (UniProt Q96DI7) | inactive: 0 |
| SMN1 (UniProt Q16637) | inactive: 0 |
| SFRS15 (UniProt O95104) | inactive: 0 |
| SLC35A1 (UniProt P78382) | inactive: 0 |
| SLC25A46 (UniProt Q96AG3) | inactive: 0 |
| SMC5 (UniProt Q8IY18) | inactive: 0 |
| SFRS9 (UniProt Q13242) | inactive: 0 |
| SIRT1 (UniProt Q96EB6) | inactive: 0 |
| SNX13 (UniProt Q9Y5W8) | inactive: 0 |
| SHPK (UniProt Q9UHJ6) | inactive: 0 |
| SLU7 (UniProt O95391) | inactive: 0 |

| Target | dose-dependent thermal stabilisation call |
| --- | --- |
| SLC9A6 (UniProt Q92581) | inactive: 0 |
| SIPA1 (UniProt Q96FS4) | inactive: 0 |
| SH3GLB1 (UniProt Q9Y371) | inactive: 0 |
| SLC30A9 (UniProt Q6PML9) | inactive: 0 |
| SLC16A10 (UniProt Q8TF71) | inactive: 0 |
| SF3B5 (UniProt Q9BWJ5) | inactive: 0 |
| SLC25A13 (UniProt Q9UJS0) | inactive: 0 |
| SF3A1 (UniProt Q15459) | inactive: 0 |
| SNRNP70 (UniProt P08621) | inactive: 0 |
| SLC30A1 (UniProt Q9Y6M5) | inactive: 0 |
| SLMO2 (UniProt Q9Y3B1) | inactive: 0 |
| SMAD2 (UniProt Q15796) | inactive: 0 |
| SMC1A (UniProt Q14683) | inactive: 0 |
| SLC38A9 (UniProt Q8NBW4) | inactive: 0 |
| SHOC2 (UniProt Q9UQ13) | inactive: 0 |
| SLC1A4 (UniProt P43007) | inactive: 0 |
| SMEK1 (UniProt Q6IN85) | inactive: 0 |
| SLC25A5 (UniProt P05141) | inactive: 0 |
| SLC11A2 (UniProt P49281) | inactive: 0 |
| SLC29A3 (UniProt Q9BZD2) | inactive: 0 |

3 entries picked at random from those above, as already listed:

| Target | dose-dependent thermal stabilisation call |
| --- | --- |
| SLC9A6 (UniProt Q92581) | inactive: 0 |
| SLC1A4 (UniProt P43007) | inactive: 0 |
| SLC11A2 (UniProt P49281) | inactive: 0 |
